# PubChem BioAssay AID720505 | Drosophila RNAi Screening Center – 2013
# Purpose: 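Knock-downs that reduce calcium influx once internal stores are emptied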 (primary screen)
# Cells: Drosophila S2R+ cells
# Reagents: long dsRNA against Drosophila genes
# Conditions: thapsigargin (2 µM) in calcium-free buffer to empty internal stores, then 2 mM calcium added back
# Detection: 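Fluo-4 signal in 384-well plates read on a FLIPR after thapsigargin (2 µM, calcium-free) store depletion and 2 mM calcium add-back; unnormalised mean endpoint per well; screen run twice, selected wells retested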
# Scale: calcium signal and retest calcium signal: higher = more calcium entry after store depletion
# Active means: 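About 1500 genes called as lowering calcium entry, by varying amounts, judged against per-plate control wells with STIM1 as positive and Rho1 as negative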
# Meaning of the calls: active = called as lowering calcium entry; inactive = not called
# In all, the deposit lists about 20,000 reagents; shown is a random part of those with a known target gene and a result. Over the whole deposit, about 2,100 (10%) got an active call. 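Raw plate signals without normalisation; calls rest on control-based scores that were not deposited; replicate 2 separates called from uncalled poorly.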 A plus sign joins genes that one reagent is predicted to hit. Not given: the amount of reagent, the time to read-out.
Target gene,dsRNA,"calcium signal, replicate 1","calcium signal, replicate 2","retest calcium signal, replicate 1","retest calcium signal, replicate 2",Call
CG3548,DRSC04387,142,85.1,,,inactive
CG33099,DRSC15774,203,295,,,inactive
stw,DRSC04842,128,158,,,inactive
stw,DRSC04843,127,203,,,inactive
stw,DRSC22527,104,95.1,,,inactive
Cyp9c1,DRSC04607,181,77.5,,,inactive
Iru,DRSC14457,141,99.4,,,inactive
PIP4K,DRSC17213,134,172,,,inactive
CG15719,DRSC19685,146,85,,,inactive
CG16904,DRSC15161,104,144,,,inactive
CG14929 + CG14930,DRSC02412,211,237,,,inactive
Pgam5-2,DRSC04278,177,163,,,inactive
CG31743 + CG34313,DRSC02781,53.5,103,,,active
CG31743 + CG34313,DRSC02782,126,126,,,inactive
Cp15,DRSC11118,100,79.3,,,inactive
CG5860,DRSC15896,132,177,,,inactive
CG12836,DRSC06182,56.6,133,,,active
CG10936,DRSC05669,114,106,,,inactive
CG10936,DRSC05670,114,99.1,,,inactive
CG10936,DRSC06018,169,141,,,inactive
Eig71Eb,DRSC11149,75,156,,,inactive
Obp56e,DRSC07188,189,176,,,inactive
CG8852,DRSC00719,151,85.5,,,inactive
CG34282,DRSC16298,129,120,,,inactive
Ubr3,DRSC17987,152,151,,,inactive
Ubr3,DRSC17997,177,132,,,inactive
GlcAT-P,DRSC10603,88.3,134,,,inactive
GlcAT-P,DRSC10604,83.5,90.2,,,inactive
CG9586,DRSC03270,208,119,,,inactive
Ir52d,DRSC06264,111,203,,,inactive
CG9664,DRSC00725,138,148,,,inactive
CG15170,DRSC02471,98.6,118,,,inactive
CG32102,DRSC22015,110,210,,,inactive
GstE11,DRSC06926,141,94.9,,,inactive
Gr22c,DRSC22081,107,244,,,inactive
p130CAS,DRSC08257,138,124,,,inactive
MAPk-Ak2,DRSC18678,223,134,,,inactive
Cpr67Fb,DRSC10314,59.9,118,,,inactive
CG9815,DRSC04567,97.1,152,,,inactive

Part of the list above in another layout:
CG15719 [DRSC19685]
- calcium signal, replicate 1: 146
- calcium signal, replicate 2: 85
- Call: inactive

CG16904 [DRSC15161]
- calcium signal, replicate 1: 104
- calcium signal, replicate 2: 144
- Call: inactive

CG14929 + CG14930 [DRSC02412]
- calcium signal, replicate 1: 211
- calcium signal, replicate 2: 237
- Call: inactive

Pgam5-2 [DRSC04278]
- calcium signal, replicate 1: 177
- calcium signal, replicate 2: 163
- Call: inactive

CG31743 + CG34313 [DRSC02781]
- calcium signal, replicate 1: 53.5
- calcium signal, replicate 2: 103
- Call: active

CG31743 + CG34313 [DRSC02782]
- calcium signal, replicate 1: 126
- calcium signal, replicate 2: 126
- Call: inactive

Cp15 [DRSC11118]
- calcium signal, replicate 1: 100
- calcium signal, replicate 2: 79.3
- Call: inactive

CG5860 [DRSC15896]
- calcium signal, replicate 1: 132
- calcium signal, replicate 2: 177
- Call: inactive

CG12836 [DRSC06182]
- calcium signal, replicate 1: 56.6
- calcium signal, replicate 2: 133
- Call: active

CG10936 [DRSC05669]
- calcium signal, replicate 1: 114
- calcium signal, replicate 2: 106
- Call: inactive

The results go on:
Target gene,dsRNA,"calcium signal, replicate 1","calcium signal, replicate 2","retest calcium signal, replicate 1","retest calcium signal, replicate 2",Call
CG12811,DRSC14549,105,80.6,,,inactive
mRpS6,DRSC08470,88.6,90.1,,,inactive
Adar,DRSC17725,101,172,,,inactive
Sym,DRSC12301,95.4,88,,,inactive
DnaJ-H,DRSC03273,86.5,151,,,inactive
ChAT,DRSC16609,167,145,,,inactive
ChAT,DRSC22755,140,197,,,inactive
CG30049,DRSC21345,114,95.2,,,inactive
TwdlM,DRSC15810,98.9,83.5,,,inactive
pes,DRSC03033,91.5,163,,,inactive
slmb,DRSC17056,200,332,,,inactive
Eglp1,DRSC04502,174,88,,,inactive
CG9254,DRSC01969,87.9,144,,,inactive
CG15083,DRSC06514,108,95.4,,,inactive
mRpL40,DRSC15749,140,94.1,,,inactive
CG12744,DRSC06164,163,193,,,inactive
par-1,DRSC05792,59.4,111,,,active
par-1,DRSC06098,183,215,,,inactive
par-1,DRSC06616,138,97.1,,,inactive
par-1,DRSC07660,177,117,,,inactive
par-1,DRSC07661,174,150,,,inactive
CG9213,DRSC20170,121,138,,,inactive
Manf,DRSC14091,113,214,,,inactive
CNT2,DRSC07073,160,97.8,,,inactive
pncr004:X (retired record),DRSC19295,121,131,,,inactive
CG5800,DRSC19962,89.9,78.3,,,inactive
ranshi,DRSC16564,90.8,159,,,inactive
tHMG2,DRSC16182,164,176,,,inactive
eIF2Bepsilon,DRSC18769,84.8,162,,,inactive
Alms1b + Alms1a,DRSC18559,111,130,,,inactive
CG5478,DRSC15814,144,163,,,inactive
CG31871,DRSC02567,214,167,,,inactive
CG31871,DRSC02571,208,165,,,inactive
prd,DRSC03597,99.9,105,,,inactive
Tom,DRSC11306,106,145,,,inactive
Proc-R,DRSC18410,189,111,,,inactive
Prx4,DRSC08668,71.7,72.3,,,inactive
CG13894,DRSC08364,78.8,52.7,,,inactive
CG13894,DRSC23205,121,175,,,inactive
mldr,DRSC18100,131,135,,,inactive
l(2)34Fd,DRSC01911,94.6,76.9,,,inactive
Elys,DRSC19571,131,76.7,,,inactive
Mkrn1,DRSC11870,107,215,111,96.7,inactive
CG31077,DRSC13805,,,,,active
Irk2,DRSC15569,183,181,,,inactive
frj,DRSC03250,103,142,,,inactive
Jon74E,DRSC10617,109,192,,,inactive
CG17202,DRSC15194,136,115,,,inactive
CG17202,DRSC23073,106,96.5,,,inactive
CG5439,DRSC02861,98.2,118,,,inactive
CG13721,DRSC08330,75.9,67.8,,,inactive
CG17633,DRSC02631,191,149,,,inactive
Vmat + CG13330,DRSC06365,127,146,,,inactive
Porin2,DRSC02584,123,104,,,inactive
CG14535,DRSC02393,88.1,150,,,inactive
Vinc,DRSC18728,89.4,132,,,inactive
Fas1,DRSC16669,163,129,,,inactive
Eip63F-1,DRSC08659,78.2,120,,,inactive
CG12964,DRSC06266,152,204,90.3,119,inactive
CG12964,DRSC23210,109,183,,,inactive
wwk,DRSC01941,86.6,148,,,inactive
Daxx,DRSC03255,96.5,278,,,inactive
CG17598,DRSC20636,170,117,,,inactive
Cpr76Bd,DRSC11063,70.8,133,,,active
CR14798,DRSC17956,68.3,132,,,inactive
CG12983,DRSC11692,99.1,94.4,,,inactive
Ugt49B2,DRSC16049,132,128,,,inactive
